Laboratory results as given in patent US20200078441A1.
No constants are given. Whether binding was seen depends on the method and setting. For part of these data: Binding seen in cells or lysates may run through a third protein. Some binding calls cover weakened binding; strength is not graded here.

Chains of the proteins cited; added tags and fusions are not shown. Lines headed by an entry give the natural chain unless they say otherwise; changes in a name come on top. A line that says so, or that is headed by a name, gives the form on record, which may keep a tag or linker. Residues count along the entry.
UniProt O43347: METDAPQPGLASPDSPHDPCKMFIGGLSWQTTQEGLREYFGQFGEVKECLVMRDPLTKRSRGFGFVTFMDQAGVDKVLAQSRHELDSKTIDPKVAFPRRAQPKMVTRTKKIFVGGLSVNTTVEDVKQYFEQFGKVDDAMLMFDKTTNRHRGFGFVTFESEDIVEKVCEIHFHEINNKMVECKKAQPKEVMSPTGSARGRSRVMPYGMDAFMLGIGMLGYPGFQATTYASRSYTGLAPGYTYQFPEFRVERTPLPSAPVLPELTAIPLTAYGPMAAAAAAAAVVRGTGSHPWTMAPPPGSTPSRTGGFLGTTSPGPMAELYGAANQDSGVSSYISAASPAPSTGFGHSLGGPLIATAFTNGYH
recombinant His-tagged AGO2 protein (human Argonaute 2, baculovirus-expressed) (Q9UKV8, form named): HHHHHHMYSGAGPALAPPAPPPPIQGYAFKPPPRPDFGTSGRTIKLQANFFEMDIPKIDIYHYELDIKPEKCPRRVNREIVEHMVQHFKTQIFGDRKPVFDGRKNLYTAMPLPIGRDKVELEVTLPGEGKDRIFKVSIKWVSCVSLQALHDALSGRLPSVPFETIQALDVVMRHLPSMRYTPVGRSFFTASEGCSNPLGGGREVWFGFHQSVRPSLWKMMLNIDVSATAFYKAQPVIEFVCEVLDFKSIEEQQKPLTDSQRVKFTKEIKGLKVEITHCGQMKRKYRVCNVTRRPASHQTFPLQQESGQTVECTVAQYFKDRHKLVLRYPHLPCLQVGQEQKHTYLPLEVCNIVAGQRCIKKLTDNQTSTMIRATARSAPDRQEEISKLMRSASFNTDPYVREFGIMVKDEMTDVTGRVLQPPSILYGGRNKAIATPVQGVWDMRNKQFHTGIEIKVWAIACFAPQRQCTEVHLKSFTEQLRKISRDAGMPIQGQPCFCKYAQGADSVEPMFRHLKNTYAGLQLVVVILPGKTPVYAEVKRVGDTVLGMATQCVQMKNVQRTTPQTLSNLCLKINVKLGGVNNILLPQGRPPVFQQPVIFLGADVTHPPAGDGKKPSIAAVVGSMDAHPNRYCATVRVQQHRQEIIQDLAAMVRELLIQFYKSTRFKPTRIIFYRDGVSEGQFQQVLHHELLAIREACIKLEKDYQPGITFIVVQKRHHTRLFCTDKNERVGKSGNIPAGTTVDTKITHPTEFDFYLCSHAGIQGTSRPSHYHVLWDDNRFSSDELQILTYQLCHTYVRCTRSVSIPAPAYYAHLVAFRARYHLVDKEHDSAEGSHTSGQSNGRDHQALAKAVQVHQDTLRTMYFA
UniProt P11940: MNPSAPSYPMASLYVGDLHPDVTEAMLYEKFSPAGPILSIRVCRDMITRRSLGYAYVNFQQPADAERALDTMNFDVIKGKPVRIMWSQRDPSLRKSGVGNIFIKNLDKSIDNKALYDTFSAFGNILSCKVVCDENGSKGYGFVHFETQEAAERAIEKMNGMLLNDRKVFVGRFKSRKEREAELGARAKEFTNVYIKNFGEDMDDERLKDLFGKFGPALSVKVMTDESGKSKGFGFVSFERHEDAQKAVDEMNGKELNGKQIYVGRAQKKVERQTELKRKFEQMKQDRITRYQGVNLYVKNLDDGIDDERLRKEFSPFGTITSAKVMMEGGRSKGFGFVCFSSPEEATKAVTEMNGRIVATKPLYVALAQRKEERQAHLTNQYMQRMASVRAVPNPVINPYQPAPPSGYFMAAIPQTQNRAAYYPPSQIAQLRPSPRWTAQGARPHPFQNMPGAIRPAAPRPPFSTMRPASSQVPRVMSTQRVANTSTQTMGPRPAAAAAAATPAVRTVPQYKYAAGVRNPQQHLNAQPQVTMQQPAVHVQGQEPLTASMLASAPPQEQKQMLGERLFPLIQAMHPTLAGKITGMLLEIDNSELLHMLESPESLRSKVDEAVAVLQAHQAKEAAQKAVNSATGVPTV
UniProt Q14152, residues 2-1382: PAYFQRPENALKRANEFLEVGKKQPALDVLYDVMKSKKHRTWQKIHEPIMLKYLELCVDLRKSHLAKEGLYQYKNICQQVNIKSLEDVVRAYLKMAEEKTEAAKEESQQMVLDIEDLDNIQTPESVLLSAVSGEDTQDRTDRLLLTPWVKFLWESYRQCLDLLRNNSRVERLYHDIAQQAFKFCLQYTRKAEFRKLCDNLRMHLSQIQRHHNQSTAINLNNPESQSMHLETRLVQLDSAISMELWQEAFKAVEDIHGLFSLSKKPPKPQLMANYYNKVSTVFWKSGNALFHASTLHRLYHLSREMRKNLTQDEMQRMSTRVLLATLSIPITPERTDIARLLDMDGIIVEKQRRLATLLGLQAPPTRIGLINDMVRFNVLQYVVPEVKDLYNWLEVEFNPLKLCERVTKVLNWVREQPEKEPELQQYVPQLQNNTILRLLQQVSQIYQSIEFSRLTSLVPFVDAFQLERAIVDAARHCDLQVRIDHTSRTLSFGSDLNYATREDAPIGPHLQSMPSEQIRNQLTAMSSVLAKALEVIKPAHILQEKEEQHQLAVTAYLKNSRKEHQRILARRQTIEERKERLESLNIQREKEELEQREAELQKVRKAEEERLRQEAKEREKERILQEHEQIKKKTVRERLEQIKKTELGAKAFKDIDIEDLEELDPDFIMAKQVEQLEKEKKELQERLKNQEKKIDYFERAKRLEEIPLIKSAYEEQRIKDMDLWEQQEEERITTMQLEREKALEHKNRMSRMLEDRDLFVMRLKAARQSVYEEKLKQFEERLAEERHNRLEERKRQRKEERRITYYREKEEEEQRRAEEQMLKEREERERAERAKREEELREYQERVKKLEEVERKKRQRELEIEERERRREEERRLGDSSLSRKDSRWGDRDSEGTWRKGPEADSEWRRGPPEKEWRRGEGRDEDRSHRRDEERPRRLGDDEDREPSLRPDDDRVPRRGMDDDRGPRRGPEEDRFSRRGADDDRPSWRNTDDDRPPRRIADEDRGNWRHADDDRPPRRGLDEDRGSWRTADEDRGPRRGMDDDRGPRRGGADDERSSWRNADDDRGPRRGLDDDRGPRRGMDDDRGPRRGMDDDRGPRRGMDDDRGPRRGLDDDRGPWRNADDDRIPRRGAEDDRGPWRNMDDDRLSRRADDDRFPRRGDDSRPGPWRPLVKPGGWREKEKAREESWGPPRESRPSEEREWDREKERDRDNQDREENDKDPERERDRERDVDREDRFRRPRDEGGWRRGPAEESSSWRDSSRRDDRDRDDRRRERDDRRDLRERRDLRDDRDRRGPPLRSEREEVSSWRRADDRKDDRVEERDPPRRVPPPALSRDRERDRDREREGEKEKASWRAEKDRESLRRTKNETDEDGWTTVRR

What was measured:
[1] = target: Flag-tagged wild-type MSI1 (MSI1-wt) stably expressed in 05MG cells (human) (UniProt O43347); assay: LC-MS/MS of the MSI1 immunoprecipitate from the cytosolic fraction of 05MG cells (normoxia or hypoxia)
[2] = target: recombinant His-tagged AGO2 protein (human Argonaute 2, baculovirus-expressed) (human) (UniProt Q9UKV8); assay: in vitro binding assay with purified proteins
[3] = target: recombinant His-tagged AGO2 protein (human Argonaute 2, baculovirus-expressed) (human) (UniProt Q9UKV8); assay: pull-down of recombinant MSI1 constructs with recombinant AGO2, IP:AGO2, IB:His-ab
[4] = target: Polyadenylate-binding protein 1 (Homo sapiens) (UniProt P11940); assay: immunoprecipitation of FlagMSI1 from 05MG cells, hypoxia 0 or 24 h, immunoblot
[5] = target: recombinant His-tagged AGO2 protein (human Argonaute 2, baculovirus-expressed) (human) (UniProt Q9UKV8); assay: pull-down assay with recombinant MSI1 and AGO2 proteins
[6] = target: recombinant His-tagged AGO2 protein (human Argonaute 2, baculovirus-expressed) (human) (UniProt Q9UKV8); assay: in vitro pull-down of purified His-AGO2 and Flag-MSI1 with anti-AGO2 antibody
[7] = target: recombinant His-tagged AGO2 protein (human Argonaute 2, baculovirus-expressed) (human) (UniProt Q9UKV8); assay: in vitro pull-down of purified His-AGO2 and Flag-MSI1 with anti-AGO2 antibody, immunoblot

“Polyadenylate-binding protein 1 (from UniProt P11940)” was tested, and the binding [1] was “binds”.

“purified C-terminal domain of MSI1 (recombinant) (from UniProt O43347 187-362)” was tested, and the binding [2] was “binds” and the binding [3] was “binds”.

With “Eukaryotic translation initiation factor 3 subunit A (from UniProt Q14152)” the binding [1] was “binds”.

For “Flag-tagged wild-type MSI1 (MSI1-wt) stably expressed in 05MG cells (from UniProt O43347 1-362)”, the binding [4] was “binds”.

In the case of “recombinant Flag-tagged MSI1 protein (human Musashi-1, full-length, baculovirus-expressed) (from UniProt O43347 1-362)”, the binding [5] is reported as “binds”, the binding [6] is reported as “binds” and the binding [7] is reported as “binds”. For the same substance, the binding [3] was “binds”.
